In the supplement of paper PMC3334620:
In all, about 33,000 sequences were measured (“E-score (-0.5 to 0.5)”: median about -0.015, highest 2% from about 0.3 on). Some of the results follow.

Target: T1, Abf1 (UniProt P14164)
T1 sequence: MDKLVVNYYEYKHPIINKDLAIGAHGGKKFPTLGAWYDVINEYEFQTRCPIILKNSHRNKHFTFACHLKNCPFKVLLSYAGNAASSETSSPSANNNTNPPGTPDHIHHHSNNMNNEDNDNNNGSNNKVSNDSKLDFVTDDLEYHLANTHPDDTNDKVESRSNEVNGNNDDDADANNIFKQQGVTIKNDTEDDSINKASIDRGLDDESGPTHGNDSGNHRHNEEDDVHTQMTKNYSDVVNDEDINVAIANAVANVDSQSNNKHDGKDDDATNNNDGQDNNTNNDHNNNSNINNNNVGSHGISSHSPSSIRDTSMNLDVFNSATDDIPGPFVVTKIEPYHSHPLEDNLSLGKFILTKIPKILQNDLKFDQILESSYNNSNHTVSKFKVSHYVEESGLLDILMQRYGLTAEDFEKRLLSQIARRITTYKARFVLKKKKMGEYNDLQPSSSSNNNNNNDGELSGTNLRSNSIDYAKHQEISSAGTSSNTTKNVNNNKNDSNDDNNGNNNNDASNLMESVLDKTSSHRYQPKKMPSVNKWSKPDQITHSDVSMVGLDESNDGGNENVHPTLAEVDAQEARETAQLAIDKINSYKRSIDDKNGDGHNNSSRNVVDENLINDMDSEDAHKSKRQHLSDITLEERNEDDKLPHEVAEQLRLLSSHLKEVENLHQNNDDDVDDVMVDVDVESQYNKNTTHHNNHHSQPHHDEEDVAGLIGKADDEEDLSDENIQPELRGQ
Test: PBM E-score (8-mer binding enrichment) (E-score (-0.5 to 0.5)); higher = stronger / more preferred TF binding
Conditions: protein concentration: 200 nM; construct: GST-full length
Method in brief: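 Full-length yeast transcription factors or their DNA-binding domains, GST-tagged and expressed with PURExpress, were applied at about 100-200 nM to universal all-10-mer Agilent arrays. These arrays had been made double-stranded by primer extension on fresh or once-stripped slides. Detection used fluorescent anti-GST, normalisation used masliner, and E-scores for ungapped eight-base words pooled with reverse complements came from the Universal PBM Analysis Suite.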

Going from GATGGTGC to AGGTGCTA, the “PBM E-score” value rises from -0.28 to -0.0656.

Going from ATGAACTA to ACCTATGC, the “PBM E-score” value falls from -0.181 to -0.226.

First: CGCGTTAG
Second: ACGTCTTC
The “PBM E-score” value of the first is higher: 0.0943 for the first, -0.0652 for the second.

First: CCCAGCCA
Second: CCTCGGTA
The “PBM E-score” value of the first is higher: 0.0326 for the first, -0.267 for the second.

Compared with ATGTCTAG, ATACGTGA is higher in “PBM E-score” value: 0.211 for the first, 0.241 for the second.

Going from TATTTTAA to CCCATCAG, the “PBM E-score” value falls from 0.174 to -0.384.

Going from CGGCATAG to CCCGACAG, the “PBM E-score” value falls from 0.0597 to 0.0267.

First: ATTACGAA
Second: ACCCCAGC
The “PBM E-score” value of the first is higher: 0.281 for the first, 0.124 for the second.

Going from ACGCAAAC to ATATGAAT, the “PBM E-score” value rises from -0.0491 to -0.00615.

Compared with CCCGTTAG, AGGCCGGC is lower in “PBM E-score” value: -0.142 for the first, -0.286 for the second.

First: CCGCGCCC
Second: AAGAGTAC
The “PBM E-score” value of the first is lower: -0.247 for the first, 0.0113 for the second.

Compared with GGCCCGGA, AATAGAGC is higher in “PBM E-score” value: -0.234 for the first, -0.168 for the second.

First: CGTATGGC
Second: GTCTTGGA
The “PBM E-score” value of the first is higher: 0.249 for the first, -0.188 for the second.

Compared with TCTCAAGA, CAAAATCA is higher in “PBM E-score” value: -0.00332 for the first, 0.173 for the second.

Compared with CGAGGTCA, GCTCCCGA is lower in “PBM E-score” value: 0.0811 for the first, -0.233 for the second.

Going from ACTTGCGC to TAAATCTA, the “PBM E-score” value rises from -0.045 to 0.141.

Going from AGGGAAGG to AGCTGCGC, the “PBM E-score” value rises from -0.23 to -0.182.

First: CCATTCTC
Second: ATAGTACA
The “PBM E-score” value of the first is lower: -0.082 for the first, 0.251 for the second.

First: CGGTGTAG
Second: AACGCAAT
The “PBM E-score” value of the first is lower: -0.108 for the first, 0.0456 for the second.

First: AAGCATCA
Second: ACCACTTC
The “PBM E-score” value of the first is higher: -0.0094 for the first, -0.0468 for the second.

First: CGTTTCTC
Second: GCTGTCCC
The “PBM E-score” value of the first is higher: -0.148 for the first, -0.21 for the second.

First: CGCCCCAA
Second: GAGTTCCA
The “PBM E-score” value of the first is lower: -0.14 for the first, -0.0115 for the second.

Going from AGCGTGCC to ACTGGCTA, the “PBM E-score” value falls from -0.076 to -0.0948.

Compared with CTCAGTAC, AGGACCAA is higher in “PBM E-score” value: -0.1 for the first, -0.0325 for the second.

First: AACTCCAA
Second: CCACCTAC
The “PBM E-score” value of the first is lower: -0.0622 for the first, -0.011 for the second.

First: CATAAAAG
Second: CAACAAGA
The “PBM E-score” value of the first is higher: 0.0549 for the first, 0.0472 for the second.

Compared with ACATCGAA, AGATAGGA is lower in “PBM E-score” value: 0.185 for the first, -0.117 for the second.

First: AGGAGTAG
Second: AGAAACAC
The “PBM E-score” value of the first is lower: -0.0714 for the first, -0.0584 for the second.

First: CCCGCTAC
Second: ACTTACAT
The “PBM E-score” value of the first is higher: 0.134 for the first, -0.0917 for the second.

Compared with CCTCTGTC, CACGTAAA is lower in “PBM E-score” value: -0.0632 for the first, -0.155 for the second.

Going from AAAAGGAT to GACGTCAC, the “PBM E-score” value rises from 0.174 to 0.233.

Going from ACCATAAC to CTAAGAAA, the “PBM E-score” value rises from -0.0289 to 0.0591.

Compared with AGCTGCAC, GACTCCAC is lower in “PBM E-score” value: -0.0495 for the first, -0.286 for the second.

Going from ACTACCCT to ACCCTTAA, the “PBM E-score” value rises from -0.23 to -0.0261.

Going from ACTCTTTG to TCGGGCCA, the “PBM E-score” value falls from -0.0213 to -0.182.

Going from CCAACCAC to AACTCACA, the “PBM E-score” value falls from 0.0854 to 0.0255.

Compared with ACAGGGGT, AGCAGCAA is lower in “PBM E-score” value: 0.0457 for the first, -0.152 for the second.

Going from GGGCGGGA to AGCGTTTG, the “PBM E-score” value rises from -0.118 to -0.116.

First: CGGAGTGC
Second: CCGTCCAA
The “PBM E-score” value of the first is lower: -0.0789 for the first, 0.117 for the second.

Going from ACCAACAC to CGAGTACA, the “PBM E-score” value rises from -0.0641 to 0.00925.

First: AGGATCGC
Second: GCAGGCAC
The “PBM E-score” value of the first is higher: 0.109 for the first, -0.145 for the second.

First: ACGACCGT
Second: AAAATAAG
The “PBM E-score” value of the first is lower: 0.061 for the first, 0.127 for the second.

First: ATTGCTTC
Second: CAGGTTGA
The “PBM E-score” value of the first is higher: 0.0681 for the first, -0.172 for the second.

Going from CCTCCATC to CACATAGG, the “PBM E-score” value rises from -0.106 to -0.0151.

Going from AAAACAAC to AACCGGCA, the “PBM E-score” value falls from -0.0575 to -0.125.

Going from ATCGCGGC to CCATGCAG, the “PBM E-score” value falls from 0.111 to -0.22.

First: AGGGCAAC
Second: ACATTTCT
The “PBM E-score” value of the first is lower: -0.0898 for the first, 0.0747 for the second.

Going from CACTCAAG to GCGCCTCA, the “PBM E-score” value falls from -0.0316 to -0.23.

Compared with CGAACGCA, CCCATATC is lower in “PBM E-score” value: 0.197 for the first, -0.00171 for the second.

Compared with ATTTCCAG, CCCTTAAA is higher in “PBM E-score” value: -0.104 for the first, 0.109 for the second.

Compared with CGCAACAA, GCTTCTAA is lower in “PBM E-score” value: 0.0283 for the first, -0.132 for the second.

Going from CCTTAGTC to GAGGCGAC, the “PBM E-score” value falls from 0.0399 to -0.0714.

Going from AGCAACTA to CTGGTTAC, the “PBM E-score” value falls from 0.0764 to -0.108.

First: ATCTTAAT
Second: TCGGCCCA
The “PBM E-score” value of the first is higher: 0.0845 for the first, -0.0739 for the second.

Going from ATTTGGGG to CAAGCGAA, the “PBM E-score” value rises from -0.0322 to 0.0652.

First: GGCTCGGA
Second: CAAAGTTA
The “PBM E-score” value of the first is lower: -0.23 for the first, 0.136 for the second.

Compared with GGTAGGGA, AAGGCCGG is lower in “PBM E-score” value: -0.177 for the first, -0.184 for the second.

Compared with TCGTTACA, GCTTAGAA is lower in “PBM E-score” value: 0.179 for the first, -0.0686 for the second.

First: CTGTAGCA
Second: AATCCATC
The “PBM E-score” value of the first is lower: -0.139 for the first, 0.0589 for the second.

Compared with ACTCGGGC, AGCACATA is lower in “PBM E-score” value: -0.0124 for the first, -0.0221 for the second.

First: ATGATGTA
Second: GATGCACA
The “PBM E-score” value of the first is higher: 0.272 for the first, 0.0424 for the second.

Compared with GTTGTCGA, ATTTCCCC is higher in “PBM E-score” value: -0.122 for the first, -0.0526 for the second.

Going from ACGGACCG to GAACTTGA, the “PBM E-score” value falls from -0.0268 to -0.0345.

Going from GGTATTTA to AAAAGAAG, the “PBM E-score” value rises from 0.0301 to 0.0358.

Going from ATGCTTTC to CTAACCGC, the “PBM E-score” value falls from -0.0481 to -0.064.

First: CCGGAGAG
Second: GATGATCC
The “PBM E-score” value of the first is lower: -0.223 for the first, 0.0853 for the second.

First: CTATAGAA
Second: AGGTGGTG
The “PBM E-score” value of the first is lower: -0.136 for the first, -0.0773 for the second.

Compared with CTTACGTA, AACGAAAA is lower in “PBM E-score” value: 0.212 for the first, 0.103 for the second.

First: AACGAGAA
Second: ATCGTAGA
The “PBM E-score” value of the first is lower: 0.085 for the first, 0.28 for the second.

First: CTAACTCC
Second: TTATCGAA
The “PBM E-score” value of the first is lower: -0.126 for the first, 0.107 for the second.

First: TAGTCGGA
Second: ACCCGAGT
The “PBM E-score” value of the first is higher: 0.00166 for the first, -0.152 for the second.

Compared with ATAAGAAA, ACTAACCG is lower in “PBM E-score” value: -0.0297 for the first, -0.183 for the second.

Going from TACCTACA to AACTTTCC, the “PBM E-score” value falls from 0.0423 to -0.106.

Compared with GCTAGCGA, ACGGAGAC is higher in “PBM E-score” value: -0.00265 for the first, 0.137 for the second.

First: GATTAACA
Second: ACAAAGCG
The “PBM E-score” value of the first is higher: 0.127 for the first, -0.0535 for the second.

Compared with GGCGTATA, ACCGAACC is lower in “PBM E-score” value: -0.0363 for the first, -0.211 for the second.

First: ATGCTAGA
Second: AAGTTATA
The “PBM E-score” value of the first is lower: 0.052 for the first, 0.0911 for the second.

Going from CGTAGGAA to ACAGCCGT, the “PBM E-score” value falls from 0.247 to 0.0627.

First: TCGCGCCA
Second: ATTACTAC
The “PBM E-score” value of the first is lower: -0.242 for the first, 0.0767 for the second.

First: AGACCTGG
Second: TCATTAGA
The “PBM E-score” value of the first is lower: -0.286 for the first, 0.137 for the second.

First: AGTTTCGA
Second: CCATTGGC
The “PBM E-score” value of the first is higher: -0.113 for the first, -0.149 for the second.

First: ATTAGCAG
Second: CGGCTCGA
The “PBM E-score” value of the first is higher: 0.1 for the first, -0.0781 for the second.

Compared with ATGGATGG, CATCCTGG is higher in “PBM E-score” value: -0.121 for the first, 0.0462 for the second.

First: TCTAGTAA
Second: ATTACCGG
The “PBM E-score” value of the first is higher: 0.123 for the first, -0.0837 for the second.

First: AGAAAGAA
Second: GCTGCTGA
The “PBM E-score” value of the first is higher: -0.0104 for the first, -0.0614 for the second.

Going from AGGTGCGA to AACCCCCG, the “PBM E-score” value falls from 0.052 to -0.297.
